In publication PMC7819943, “Rice protein-binding microarrays: a tool to detect cis-acting elements near promoter regions in rice”:
The other results are listed elsewhere or left out.

By UniProt entry, the sequences of proteins in these tests, tags left out.
UniProt Q0JBA9, entry or part of it: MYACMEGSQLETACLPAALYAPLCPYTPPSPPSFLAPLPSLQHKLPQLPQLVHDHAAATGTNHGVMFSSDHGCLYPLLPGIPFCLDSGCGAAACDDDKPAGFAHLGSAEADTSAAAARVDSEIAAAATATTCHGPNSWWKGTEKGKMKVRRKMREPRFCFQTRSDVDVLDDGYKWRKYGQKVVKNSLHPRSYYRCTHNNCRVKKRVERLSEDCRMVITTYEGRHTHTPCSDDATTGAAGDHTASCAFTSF

molecular target: OsWRKY34 (Oryza sativa, UniProt Q0JBA9 1-250); test: protein-binding microarray (RPBM); PBS, 2% BSA, 51.3 ng/ul salmon testes DNA, 50 uM zinc acetate, 200 nM TF, 25 C, 1 h; high values mean tight binding; settings: protein: recombinant; tags: N-terminal polyhistidine and DsRed monomer fusion (pET32a); label: CyDye5-dUTP incorporated in the synthesized complementary strand; 3' TTTTT single-stranded linker to array surface; dsDNA, one strand shown
Method in brief: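 Transcription factors were made in E. coli BL21-CodonPlus as N-terminal fusions to a polyhistidine tag and DsRed, then purified on Ni–NTA. After primer extension with Cy5-dUTP and blocking with 2% BSA, a custom Agilent array was exposed for 1 h at 25 °C to 200 nM protein in PBS, 2% BSA, salmon testes DNA and 50 µM zinc acetate. Washed arrays were scanned on an Axon 4000B, and the binding signal is per-feature fluorescence intensity in arbitrary units.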

Sequence | binding signal
AGTCGCTACCGTTCCTTTTCTTCATTTTGGCCCATCAAAGCGGAGTCACCTAGTGCAG | 9360 fluorescence intensity (a.u.)
ATATGTCTGACTTGTACTTTTATGTTATTTTTCCTCTAATCGGAGTCACCTAGTGCAG | 13900 fluorescence intensity (a.u.)
ATTAGCCTGCCACCTCAGATCCATGGCCTTCTTGTCGGTCCGGAGTCACCTAGTGCAG | 11000 fluorescence intensity (a.u.)
TTTATTTATGACGTCATTATTCCCCTCTCGCGCGCCTATACGGAGTCACCTAGTGCAG | 8270 fluorescence intensity (a.u.)
TTCCTTTTTTCCAGCCAACCAGTACAGGCTGCATTTATCACGGAGTCACCTAGTGCAG | 8980 fluorescence intensity (a.u.)
GCGGCGGCGGCGGGGTGTGGTCTGCGGCCACGGCGAGGACCGGAGTCACCTAGTGCAG | 9570 fluorescence intensity (a.u.)
GGCATTCTGTTTGTTGCTAGCACTGTTTTTGTTACATGTTCGGAGTCACCTAGTGCAG | 14600 fluorescence intensity (a.u.)
GAAATAGGAGTAGGTTTTATCGTTCTTTTGTGTTTAATACCGGAGTCACCTAGTGCAG | 8310 fluorescence intensity (a.u.)
CCCTACTTCCCATCAAAGATACTTTGCTGCTTTGTTTATTCGGAGTCACCTAGTGCAG | 8530 fluorescence intensity (a.u.)
TTTTGCGCGGATGGCCCTTTACTTTTCCCCTCTTGTCCTCCGGAGTCACCTAGTGCAG | 10400 fluorescence intensity (a.u.)
CTTGTTGATGTGGGTGTTTCTTGGTCGATCCTTCTTGTTTCGGAGTCACCTAGTGCAG | 8330 fluorescence intensity (a.u.)
TTTTAGCTCTTACATGAGAGTCAACCCTTCTCACTTATTTCGGAGTCACCTAGTGCAG | 8040 fluorescence intensity (a.u.)
AGGTTCATCTCTCCAATCCTAGACATCATTTTTGCTACACCGGAGTCACCTAGTGCAG | 8120 fluorescence intensity (a.u.)
GCTACTTCTTCCCCATCACCACCACCACCACCATCGCTTTCGGAGTCACCTAGTGCAG | 8850 fluorescence intensity (a.u.)
TATTCACCAGCTCTGTTGTTTACTTGCTTCACCAACATACCGGAGTCACCTAGTGCAG | 8930 fluorescence intensity (a.u.)
TCGAAGATGGGACCTTTGATCTGCTGTGTTGCACATTTTTCGGAGTCACCTAGTGCAG | 9970 fluorescence intensity (a.u.)
CATGGCCTCCTCGCCCGTCTCGCTCTCGCGCCGCCACCACCGGAGTCACCTAGTGCAG | 9060 fluorescence intensity (a.u.)
CCTGTGCCAGCTTGGACTCTCTCATCTCACCCCTTTCTTTCGGAGTCACCTAGTGCAG | 8300 fluorescence intensity (a.u.)
GGGAGATCGAACTGTTGCTTCTGGTTTTTGGGGCCGGATTCGGAGTCACCTAGTGCAG | 9290 fluorescence intensity (a.u.)
TTCATGTCAGTTAGTTGGTGCCTAATTTTTACTAGCAATTCGGAGTCACCTAGTGCAG | 8660 fluorescence intensity (a.u.)
TGATCTACCTCTCCACAATTCAATCCATTTCTTCCTCTACCGGAGTCACCTAGTGCAG | 10200 fluorescence intensity (a.u.)

Sequence | binding signal
ACGCATCAACAGTGGAGGGAGGGGAGGGGAGGAGCTTCCCCGGAGTCACCTAGTGCAG | 12600 fluorescence intensity (a.u.)
TGTTTTGACACTATTTGGCACTGTTCAAACAGCGGTACCGCGGAGTCACCTAGTGCAG | 10700 fluorescence intensity (a.u.)
TTCCGCGTTCTCTTTCGTTCTCGCTTAGACCTCAGCTTACCGGAGTCACCTAGTGCAG | 11800 fluorescence intensity (a.u.)
CTTACGACAACCCGCCATGTCTTTTTTTCCGCCATAAGTACGGAGTCACCTAGTGCAG | 11600 fluorescence intensity (a.u.)
AGAATGTTTGCTCAAAGTATGTTTTTGTCATCTGTTTTTCCGGAGTCACCTAGTGCAG | 8800 fluorescence intensity (a.u.)
TTTTTTTCTATCTAGGTATAATCCGAACGAGCCCATAATTCGGAGTCACCTAGTGCAG | 8350 fluorescence intensity (a.u.)
TTGCCGGTCGGCGCCCATGGTTTTTCCCGCAAGGATTTTCCGGAGTCACCTAGTGCAG | 8670 fluorescence intensity (a.u.)
ACACACACACACACCCACCACACCACCCCGGCCGCTTCCGCGGAGTCACCTAGTGCAG | 12200 fluorescence intensity (a.u.)
CCACACCGAATCCCAACCACCATTGCCGCGCCGAGCTCTTCGGAGTCACCTAGTGCAG | 8560 fluorescence intensity (a.u.)
CTCGATCCTTCCATCTCCTCGTCTTCTCGTTTTTCCCGACCGGAGTCACCTAGTGCAG | 9550 fluorescence intensity (a.u.)
ATCAATCCACCACTCCATTATTTTGCGTAATTTTTTCCCCCGGAGTCACCTAGTGCAG | 8980 fluorescence intensity (a.u.)
TGTGGTGTTCGTCTTCTTGGTGGATCTTGCTGCTGGTATACGGAGTCACCTAGTGCAG | 8720 fluorescence intensity (a.u.)
GTGCTGGAGGAGTTCGTTGTCATCACATATCCGCAACCGACGGAGTCACCTAGTGCAG | 8730 fluorescence intensity (a.u.)
TATGTCCGGTACAATCTCATTTCCATCGTATAGCGACCGTCGGAGTCACCTAGTGCAG | 10100 fluorescence intensity (a.u.)
GTTCGTCCCGCTGCTTCCGCCGCATCCGTTGCGCACATCCCGGAGTCACCTAGTGCAG | 11400 fluorescence intensity (a.u.)
ACTTTTAAACCCATGTTTTACCATTCATCTTAATAAAAAACGGAGTCACCTAGTGCAG | 8840 fluorescence intensity (a.u.)
GGTATTGGTTTGTTGACTCGTACTCTCGTACTGGTCATTGCGGAGTCACCTAGTGCAG | 9040 fluorescence intensity (a.u.)
CGCCTCCGAGTCCCAAAACCCTAGCCATTTCTGGTTCCCTCGGAGTCACCTAGTGCAG | 9320 fluorescence intensity (a.u.)
CCTCGACCTCTCGCTACTCCAGGCGCCGCCCCATCAGATGCGGAGTCACCTAGTGCAG | 8200 fluorescence intensity (a.u.)
ACATGTCACATATTACGTCCATTTGAGTTCAATTTTTCTACGGAGTCACCTAGTGCAG | 10700 fluorescence intensity (a.u.)
CTTCTTAGCTTCCGTGTCATGTTTCTTTTTGTTATCTTTTCGGAGTCACCTAGTGCAG | 10800 fluorescence intensity (a.u.)

Individual results from the entries so far.
binding signal with CTTCTTAGCTTCCGTGTCATGTTTCTTTTTGTTATCTTTTCGGAGTCACCTAGTGCAG is entered as 10800 fluorescence intensity (a.u.)
binding signal with TGTTTTGACACTATTTGGCACTGTTCAAACAGCGGTACCGCGGAGTCACCTAGTGCAG is entered as 10700 fluorescence intensity (a.u.)
binding signal with ACACACACACACACCCACCACACCACCCCGGCCGCTTCCGCGGAGTCACCTAGTGCAG is entered as 12200 fluorescence intensity (a.u.)
